Measurements reported in the supplement of paper PMC8975748.
Counter-ions that a name gives are not always drawn. ± gives the standard deviation of the averaged measurements. Some of the results follow. Values are raw readings; no control value is given beside them.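 The yeast community starts from one strain carrying four plasmids, each with an amino-acid or uracil synthesis gene and a fluorescent protein. Random plasmid loss creates mixed prototroph and auxotroph subpopulations. Cells were fixed and counted by automated confocal fluorescence imaging, and DMSO-treated wells served as the vehicle reference.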

These compounds were tested on Saccharomyces cerevisiae BY4741 SeMeCo community (assay: imaged cell count per well (cells); higher = more cells). Conditions: 10 µM; 24 h; SM minimal medium.
Description: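 Same SeMeCo high-content imaging drug screen: Selleck FDA-approved drugs at 10 µM, 24 h in SM medium, 384-well plates, 3 replicates.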

Compound | imaged cell count per well
CC(C[N+](C)(C)C)OC(N)=O (stereo not given) [Bethanechol chloride] | 18000 ± 7400
COc1ccnc(C[S+]([O-])c2nc3cc(-n4cccc4)ccc3[nH]2)c1C (stereo not given) [Ilaprazole sodium] | 21800 ± 5600
CN(C)CCCN1c2ccccc2Sc2ccccc21 [Promazine hydrochloride] | 16600 ± 5300
CN(C)C[C@@H]1CCn2cc(c3ccccc32)C2=C(C(=O)NC2=O)c2cn(c3ccccc23)CCO1 | 21400 ± 2800
N#Cc1ccc2[nH]cc(CCCCN3CCN(c4ccc5oc(C(N)=O)cc5c4)CC3)c2c1 [Vilazodone HCl] | 24900 ± 3900
O=C1C(N(CO)C(=O)NCO)N(CO)C(=O)N1CO (stereo not given) [Diazolidinyl urea] | 28900 ± 3300
OCCN1CCN(CC/C=C2/c3ccccc3Sc3ccc(C(F)(F)F)cc32)CC1 [Flupenthixol dihydrochloride] | 26400 ± 1300
CN1[C@@H]2CC[C@H]1C[C@@H](OC(c1ccccc1)c1ccccc1)C2 [Benztropine mesylate] | 27800 ± 5700
Cc1nc2n(c(=O)c1CCN1CCC(c3noc4cc(F)ccc34)CC1)CCCC2O (stereo not given) [Paliperidone] | 31300 ± 7600
COCC1=C(C(=O)OC(C)OC(=O)OC(C)C)N2C(=O)[C@@H](NC(=O)/C(=N\OC)c3csc(N)n3)[C@H]2SC1 (stereo not given in full) [Cefpodoxime proxetil] | 25100 ± 7000
N=C(N)NC(=O)c1nc(Cl)c(N)nc1N [Amiloride HCl dihydrate] | 24100 ± 2800
C[C@H](NCc1ccc(OCc2cccc(F)c2)cc1)C(N)=O [Safinamide] | 16600 ± 3700
COc1cccc(CCc2ccccc2OCC(CN(C)C)OC(=O)CCC(=O)O)c1 (stereo not given) [Sarpogrelate hydrochloride] | 29400 ± 5300
CC[C@H]1OC(=O)[C@H](C)[C@@H](O[C@H]2C[C@@](C)(OC)[C@@H](O)[C@H](C)O2)[C@H](C)[C@@H](O[C@@H]2O[C@H](C)C[C@H](N(C)C)[C@H]2O)[C@](C)(O)C[C@@H](C)CN(C)[C@H](C)[C@@H](O)[C@]1(C)O [Azithromycin Dihydrate] | 22800 ± 7700
CCCCN1CCCCC1C(=O)Nc1c(C)cccc1C (stereo not given) [Bupivacaine HCl] | 19500 ± 9600
Cc1nc(=O)c2cc(CN(C)c3ccc(C(=O)N[C@@H](CCC(=O)O)C(=O)O)s3)ccc2[nH]1 [Raltitrexed] | 27300 ± 2000
NCCNc1ccc(NCCN)c2c1C(=O)c1ccncc1C2=O [Pixantrone Maleate] | 20800 ± 3800
CCCCCNC(=N)N/N=C/c1c[nH]c2ccc(OC)cc12 [Tegaserod Maleate] | 24000 ± 4500
OC(Cn1cncn1)(Cn1cncn1)c1ccc(F)cc1F [Fluconazole] | 25700 ± 3000
OC[C@H]1O[C@H](OCC2O[C@@H](O)[C@H](O)[C@@H](O)[C@@H]2O)[C@H](O)[C@@H](O)[C@H]1O (stereo not given in full) [Melibiose] | 19200 ± 7900

Random excerpt: two entries already listed.
Compound | imaged cell count per well
N=C(N)NC(=O)c1nc(Cl)c(N)nc1N [Amiloride HCl dihydrate] | 24100 ± 2800
COCC1=C(C(=O)OC(C)OC(=O)OC(C)C)N2C(=O)[C@@H](NC(=O)/C(=N\OC)c3csc(N)n3)[C@H]2SC1 (stereo not given in full) [Cefpodoxime proxetil] | 25100 ± 7000

(further entries)

Compound | imaged cell count per well
Nc1ccc(S(N)(=O)=O)cc1 [Sulfanilamide] | 25700 ± 2000
Cc1ccc(Sc2ccccc2N2CCNCC2)c(C)c1 [Vortioxetine] | 26000 ± 5100
O=C(O)c1cn(C2CC2)c2cc(N3CCNCC3)c(F)cc2c1=O [Ciprofloxacin hydrochloride hydrate] | 21600 ± 2100
O=C1OC(CN2CCOCC2)CN1/N=C/c1ccc([N+](=O)[O-])o1 (stereo not given) [Furaltadone HCl] | 19200 ± 1900
c1cnc2cc3c(cc2n1)[C@@H]1CNC[C@H]3C1 [Varenicline Tartrate] | 22000 ± 7200
O=C(C1CCCCC1)N1CC(=O)N2CCc3ccccc3C2C1 (stereo not given) [Praziquantel] | 23600 ± 2000
CC(C)[N+]1(C)[C@@H]2CC[C@H]1C[C@@H](OC(=O)C(CO)c1ccccc1)C2 (stereo not given in full) [Ipratropium Bromide] | 25000 ± 6300
Cc1cc(-c2ccc(/N=N/c3ccc4c(S(=O)(=O)O)cc(S(=O)(=O)O)c(N)c4c3O)c(C)c2)ccc1/N=N/c1ccc2c(S(=O)(=O)O)cc(S(=O)(=O)O)c(N)c2c1O [Evans Blue] | 8300 ± 1000
CCCNCC(O)COc1ccccc1C(=O)CCc1ccccc1 (stereo not given) [Propafenone HCl] | 25300 ± 1600
CN(C)CCN1C(=O)c2cccc3cc(N)cc(c23)C1=O [Amonafide] | 28000 ± 3700
CC(c1cc2ccccc2s1)N(O)C(N)=O (stereo not given) [Zileuton] | 18600 ± 6800
CCCCCCCCOc1ccccc1C(=O)Nc1ccc(C(=O)OCC[N+](C)(CC)CC)cc1 [Otilonium Bromide] | 5170 ± 2000
CCOc1cc(N)c(Cl)cc1C(=O)NCC1CN(Cc2ccc(F)cc2)CCO1 (stereo not given) [Mosapride] | 21400 ± 4500
COc1ccccc1N1CCN(CCCNc2cc(=O)n(C)c(=O)n2C)CC1 [Urapidil HCl] | 20900 ± 8600
CC1(C)S[C@@H]2[C@H](NC(=O)[C@H](N)c3ccc(O)cc3)C(=O)N2[C@H]1C(=O)O [Amoxicillin trihydrate] | 24200 ± 3600
CCCCOc1cc(C(=O)OCCN(CC)CC)ccc1N [Oxybuprocaine HCl] | 18400 ± 9900
O=C1c2cccc3c2[C@H](CCC3)CN1[C@@H]1CN2CCC1CC2 [Palonosetron] | 27200 ± 6200
CCCCCCCCCCCCCCCCOP(=O)([O-])OCC[N+](C)(C)C [Miltefosine] | 2800 ± 410
Cc1ncc([N+](=O)[O-])n1CCO [Metronidazole] | 25800 ± 2800
CO/N=C(\C(=O)N[C@@H]1C(=O)N2C(C(=O)O)=C(CSc3nnnn3C)CS[C@H]12)c1csc(N)n1 [Cefmenoxime hydrochloride] | 21600 ± 11000
